Data reported in article PMC7819943, “Rice protein-binding microarrays: a tool to detect cis-acting elements near promoter regions in rice”.
Some of the results follow.

The chains behind the UniProt entries cited, without tags or fusion partners.
UniProt Q0JBA9, entry or part of it: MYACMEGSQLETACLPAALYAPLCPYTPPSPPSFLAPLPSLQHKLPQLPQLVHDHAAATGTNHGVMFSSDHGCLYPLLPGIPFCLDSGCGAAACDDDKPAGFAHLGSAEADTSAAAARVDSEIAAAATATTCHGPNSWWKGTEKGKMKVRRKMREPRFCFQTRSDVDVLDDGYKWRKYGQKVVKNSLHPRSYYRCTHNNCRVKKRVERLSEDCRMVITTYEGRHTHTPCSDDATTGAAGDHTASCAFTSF

What follows are sequences tested against OsWRKY34 (Oryza sativa, UniProt Q0JBA9 1-250) (assay: protein-binding microarray (RPBM); PBS, 2% BSA, 51.3 ng/ul salmon testes DNA, 50 uM zinc acetate, 200 nM TF, 25 C, 1 h; high values mean tight binding). Details: protein: recombinant; tags: N-terminal polyhistidine and DsRed monomer fusion (pET32a); label: CyDye5-dUTP incorporated in the synthesized complementary strand; 3' TTTTT single-stranded linker to array surface; dsDNA, one strand shown.
Summary of the method: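 In PBS with 2% BSA, salmon testes DNA and 50 µM zinc acetate, 200 nM protein was incubated on a custom Agilent array at 25 °C for 1 h and then washed off. The array had been made double-stranded by primer extension with Cy5-dUTP and blocked with 2% BSA. The proteins were transcription factors fused N-terminally to polyhistidine and DsRed, expressed in E. coli BL21-CodonPlus and purified on Ni–NTA. The binding signal is per-feature fluorescence intensity (arbitrary units) from an Axon 4000B scanner.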

| Sequence | binding signal |
| --- | --- |
| CATGTTTAAAAAAGTCAACGGTGACAAACATTTAGGGAAGCGGAGTCACCTAGTGCAG | 12300 fluorescence intensity (a.u.) |
| TGATTGATGCTACCTTTAGTCTTTAGACCCTAATTATCCTCGGAGTCACCTAGTGCAG | 8130 fluorescence intensity (a.u.) |
| TCTTCCTCGTTCTTCTTCTTCTTCTAGTATCCGTGCATAACGGAGTCACCTAGTGCAG | 12000 fluorescence intensity (a.u.) |
| CATATCCGTTTTTGCTCGGGTGGGCTGGGTTAGGGACTCACGGAGTCACCTAGTGCAG | 19000 fluorescence intensity (a.u.) |
| CTTTTTTTGGTTTTTTGCCTGTAATAGTATACGGGTATACCGGAGTCACCTAGTGCAG | 8540 fluorescence intensity (a.u.) |
| ACTCTCTCCGTATTCGTATTTTAATGTATGACGCCGTTGACGGAGTCACCTAGTGCAG | 8550 fluorescence intensity (a.u.) |
| GGTGCTCGTTTTCAGTTGGGGTCGATCAAATGTTACCATTCGGAGTCACCTAGTGCAG | 8400 fluorescence intensity (a.u.) |
| TATTTACTTTCCTATTTTTTTTACAATATTGTACATACAACGGAGTCACCTAGTGCAG | 8870 fluorescence intensity (a.u.) |
| GCTCCATGCTGGTTCCTGTATAATTTTGGCCCCTGGCTAACGGAGTCACCTAGTGCAG | 9900 fluorescence intensity (a.u.) |
| TATTCTATTGAATTGTTTATTTGTATTCATTTGGCTGCCACGGAGTCACCTAGTGCAG | 9350 fluorescence intensity (a.u.) |
| TCCCTACTAGGTACCCCTTCAGGTTTCTTGGGTTTTGTTTCGGAGTCACCTAGTGCAG | 9490 fluorescence intensity (a.u.) |
| TCTTCTACTACCAGAGTGCCTCTTCTCCCGTACTCCGCCACGGAGTCACCTAGTGCAG | 8090 fluorescence intensity (a.u.) |
| TCTTGTGCAGGGGTTGATTTTTCAGTGTATAGGGGTATGACGGAGTCACCTAGTGCAG | 16800 fluorescence intensity (a.u.) |
| ATTTCTTTTTGCCCCATTATTATGGTTATTATACCACCTCCGGAGTCACCTAGTGCAG | 10300 fluorescence intensity (a.u.) |
| CCATTCATACTTTCATAGGACCTTATTTAACCTGGTTCGACGGAGTCACCTAGTGCAG | 8070 fluorescence intensity (a.u.) |
| CAGCAGTTAAGAGTTCACACCTTTCCCAGGCAACCAAATTCGGAGTCACCTAGTGCAG | 8310 fluorescence intensity (a.u.) |
| ATCTGTTTTGAGTTGTCTTAATGTCTATTCGTCATTGAAACGGAGTCACCTAGTGCAG | 8510 fluorescence intensity (a.u.) |
| GATGATTATGTTTTCGCCGACTTATTATTTCACCTTCACGCGGAGTCACCTAGTGCAG | 8460 fluorescence intensity (a.u.) |
| GTGCTGTGTTCATCTCATGTGTTCATCTCATTGTTTTTGTCGGAGTCACCTAGTGCAG | 8820 fluorescence intensity (a.u.) |
| CTTTTGTTGTTGTTCTCTGTTGCCCTTTTTGGAGAGCTTGCGGAGTCACCTAGTGCAG | 9400 fluorescence intensity (a.u.) |
| TTTTCATTGTGTTGTAGCCAACAGCCACATTGTTTTCTTTCGGAGTCACCTAGTGCAG | 8080 fluorescence intensity (a.u.) |

| Sequence | binding signal |
| --- | --- |
| GTATTTCTATATGGACTCTATACTCTACTTCTAATATTCCCGGAGTCACCTAGTGCAG | 8150 fluorescence intensity (a.u.) |
| ACTTCCACCTTTCTTCTTCTTCTTCTTCTTCGCGGCGACACGGAGTCACCTAGTGCAG | 8260 fluorescence intensity (a.u.) |
| CGTCACATCGTTCCAATTTCAACCAAACTTCCAATTTTGACGGAGTCACCTAGTGCAG | 8790 fluorescence intensity (a.u.) |
| ACCCCACACCTTTTCTCCTACCCACCACCCGTCTCCGCAACGGAGTCACCTAGTGCAG | 10500 fluorescence intensity (a.u.) |
| TATCGATAGCGACAATTAATTTTTTTCTCATCTTGTTTTTCGGAGTCACCTAGTGCAG | 9180 fluorescence intensity (a.u.) |
| GCGCCTCAGCCTCCGCCTCCGTCTTCCCCTAGCGCCGCCGCGGAGTCACCTAGTGCAG | 8420 fluorescence intensity (a.u.) |
| TTCCCTAAATGTTTGACACCGTTGACTTTTTTTTAAACATCGGAGTCACCTAGTGCAG | 33300 fluorescence intensity (a.u.) |
| TGGGCCAAACCACCGCCACGTTGCCATCGCTGATTCGCCGCGGAGTCACCTAGTGCAG | 8820 fluorescence intensity (a.u.) |
| CCCACTGCATTTGCCCTTTTTCTTGTTAGCGAAATCACTGCGGAGTCACCTAGTGCAG | 10000 fluorescence intensity (a.u.) |
| TAGTACTATTCACGTCCCATATTACTTGTCGCTTTGACTTCGGAGTCACCTAGTGCAG | 11800 fluorescence intensity (a.u.) |
| ACAACCCTAGCATGGTCACACACATATGGCATCTACATCTCGGAGTCACCTAGTGCAG | 10600 fluorescence intensity (a.u.) |
| TGTTTTTTCTGTGTTTTGCAATTCTCTGTTTTACACTTATCGGAGTCACCTAGTGCAG | 13500 fluorescence intensity (a.u.) |
| ATATATCATATGTTAATACATCTTCTCATTTTTTTTCATACGGAGTCACCTAGTGCAG | 8740 fluorescence intensity (a.u.) |
| ATCCCTTTTTCTCATTCTTCATCTATCATTTATGTTTTTACGGAGTCACCTAGTGCAG | 9610 fluorescence intensity (a.u.) |
| CACCACAGCCACACTTCTGATCACTGCTCACTCAGCTAATCGGAGTCACCTAGTGCAG | 10800 fluorescence intensity (a.u.) |
| ATGTCAAACTTGTCCTCACTTCCCATGGCAGCTTGCTTGACGGAGTCACCTAGTGCAG | 8070 fluorescence intensity (a.u.) |
| GTATCTGATTCCTGCAATTTTTCATGTTCTTGTGTTTTTACGGAGTCACCTAGTGCAG | 8670 fluorescence intensity (a.u.) |
| CTATCGATATAATCTCTAAGTGAGTTTTTTGTATTTTTTTCGGAGTCACCTAGTGCAG | 8020 fluorescence intensity (a.u.) |
| GTGGAGAATCCATCGCTTTTCCGCTTTTCCCGCACCAAATCGGAGTCACCTAGTGCAG | 9930 fluorescence intensity (a.u.) |
| CGTAATTCCTTCCGCGCTTTCCGAGTTTTTTTTTTCCATTCGGAGTCACCTAGTGCAG | 14400 fluorescence intensity (a.u.) |
| AACAATCTACGTCTCGTCTCGTCACGGCCCAATCCACGATCGGAGTCACCTAGTGCAG | 9430 fluorescence intensity (a.u.) |

Some of the entries above in a different format.
Sequence	binding signal
GCGCCTCAGCCTCCGCCTCCGTCTTCCCCTAGCGCCGCCGCGGAGTCACCTAGTGCAG	8420 fluorescence intensity (a.u.)
GTGGAGAATCCATCGCTTTTCCGCTTTTCCCGCACCAAATCGGAGTCACCTAGTGCAG	9930 fluorescence intensity (a.u.)
